Measured values: article PMC3045356
Results are given in words; binding and its absence hold for the method and conditions named. Binding seen in cells or lysates may run through a third protein. Some results given as binding are weak or reduced against the parent protein; the word gives no strength.

Protein sequences, listed by entry. Tags and fused reporters are not part of them. Residues count along the entry.
UniProt O00220, residues 24-468: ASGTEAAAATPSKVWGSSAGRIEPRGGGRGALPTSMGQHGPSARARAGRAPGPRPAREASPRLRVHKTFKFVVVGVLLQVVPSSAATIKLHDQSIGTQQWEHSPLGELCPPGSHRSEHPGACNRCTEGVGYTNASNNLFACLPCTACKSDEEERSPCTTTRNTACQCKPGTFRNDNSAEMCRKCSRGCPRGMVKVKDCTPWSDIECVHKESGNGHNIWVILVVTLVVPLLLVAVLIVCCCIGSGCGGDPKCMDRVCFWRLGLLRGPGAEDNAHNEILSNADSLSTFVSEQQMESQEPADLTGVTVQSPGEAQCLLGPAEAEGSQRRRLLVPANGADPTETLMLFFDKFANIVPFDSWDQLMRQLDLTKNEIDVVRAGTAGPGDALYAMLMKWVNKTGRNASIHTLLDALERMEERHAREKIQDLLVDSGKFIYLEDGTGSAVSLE
UniProt O14763, residues 56-440: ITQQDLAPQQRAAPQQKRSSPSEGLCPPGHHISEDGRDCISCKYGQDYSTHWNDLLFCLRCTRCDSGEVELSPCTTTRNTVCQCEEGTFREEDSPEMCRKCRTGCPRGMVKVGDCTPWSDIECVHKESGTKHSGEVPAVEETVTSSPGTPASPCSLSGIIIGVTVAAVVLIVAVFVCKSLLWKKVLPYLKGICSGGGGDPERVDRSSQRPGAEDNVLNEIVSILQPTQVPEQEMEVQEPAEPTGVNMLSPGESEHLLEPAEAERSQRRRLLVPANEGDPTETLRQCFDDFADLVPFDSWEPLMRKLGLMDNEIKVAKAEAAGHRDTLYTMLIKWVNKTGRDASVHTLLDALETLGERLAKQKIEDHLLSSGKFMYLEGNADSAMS
UniProt Q13158: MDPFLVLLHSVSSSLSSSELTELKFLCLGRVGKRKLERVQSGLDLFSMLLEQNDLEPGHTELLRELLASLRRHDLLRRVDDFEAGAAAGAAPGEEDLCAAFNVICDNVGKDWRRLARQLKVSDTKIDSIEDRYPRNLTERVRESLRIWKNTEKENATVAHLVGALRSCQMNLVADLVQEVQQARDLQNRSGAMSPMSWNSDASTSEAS

How the values were obtained:
[1] = target: Death receptor 4 (DR4) (human (endogenous in SW948)) (UniProt O00220); assay: co-IP; DR4-DISC and DR5-DISC: SW948 cells stimulated 15 min at 37°C with 5 μg/ml agonistic antibody (HGS-ETR1 for DR4, TR2J for DR5); lysis in 0.2% Nonidet P-40, 150 mM NaCl, 20 mM Tris-HCl pH 7.5; precipitated with protein-G agarose; Western blot for DR4, DR5, FADD, caspase 8, c-FLIP
[2] = target: Death receptor 5 (DR5) (human (endogenous in SW948)) (UniProt O14763); assay: as above

FADD (from UniProt Q13158 1-208)
binding [1]: binds | binding [2]: binds
